No constants are given. Whether binding was seen depends on the method and setting. For part of these data: Binding seen in cells or lysates may run through a third protein. For part of these data: Binding can be weak; no strength is given. For part of these data: Tags and fused reporters may be left off the sequences shown.

Protein sequences, listed by entry. Tags and fused reporters are not part of them. Lines headed by an entry give the natural chain unless they say otherwise; changes in a name come on top.
UniProt D3ZXM0: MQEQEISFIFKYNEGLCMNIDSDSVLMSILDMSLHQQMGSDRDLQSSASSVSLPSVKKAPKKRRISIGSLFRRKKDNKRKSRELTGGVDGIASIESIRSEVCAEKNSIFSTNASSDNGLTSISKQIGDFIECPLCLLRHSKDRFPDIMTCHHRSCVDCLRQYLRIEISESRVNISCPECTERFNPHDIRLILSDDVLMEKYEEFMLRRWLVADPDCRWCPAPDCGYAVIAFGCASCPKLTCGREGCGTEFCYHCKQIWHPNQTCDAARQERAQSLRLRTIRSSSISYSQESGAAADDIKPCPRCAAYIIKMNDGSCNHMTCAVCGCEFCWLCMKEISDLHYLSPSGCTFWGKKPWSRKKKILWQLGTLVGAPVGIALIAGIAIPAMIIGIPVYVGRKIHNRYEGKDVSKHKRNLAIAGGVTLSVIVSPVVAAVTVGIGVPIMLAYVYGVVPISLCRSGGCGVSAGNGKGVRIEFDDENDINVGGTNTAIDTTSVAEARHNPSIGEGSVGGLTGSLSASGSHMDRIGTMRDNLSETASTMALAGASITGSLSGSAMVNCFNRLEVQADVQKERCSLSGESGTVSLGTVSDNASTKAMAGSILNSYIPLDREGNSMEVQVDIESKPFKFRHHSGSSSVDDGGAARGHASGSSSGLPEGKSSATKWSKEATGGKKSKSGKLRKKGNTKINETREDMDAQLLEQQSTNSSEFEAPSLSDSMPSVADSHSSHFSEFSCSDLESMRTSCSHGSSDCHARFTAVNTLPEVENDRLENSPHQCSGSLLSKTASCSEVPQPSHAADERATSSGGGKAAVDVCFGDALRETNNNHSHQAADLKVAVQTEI
UniProt P50636: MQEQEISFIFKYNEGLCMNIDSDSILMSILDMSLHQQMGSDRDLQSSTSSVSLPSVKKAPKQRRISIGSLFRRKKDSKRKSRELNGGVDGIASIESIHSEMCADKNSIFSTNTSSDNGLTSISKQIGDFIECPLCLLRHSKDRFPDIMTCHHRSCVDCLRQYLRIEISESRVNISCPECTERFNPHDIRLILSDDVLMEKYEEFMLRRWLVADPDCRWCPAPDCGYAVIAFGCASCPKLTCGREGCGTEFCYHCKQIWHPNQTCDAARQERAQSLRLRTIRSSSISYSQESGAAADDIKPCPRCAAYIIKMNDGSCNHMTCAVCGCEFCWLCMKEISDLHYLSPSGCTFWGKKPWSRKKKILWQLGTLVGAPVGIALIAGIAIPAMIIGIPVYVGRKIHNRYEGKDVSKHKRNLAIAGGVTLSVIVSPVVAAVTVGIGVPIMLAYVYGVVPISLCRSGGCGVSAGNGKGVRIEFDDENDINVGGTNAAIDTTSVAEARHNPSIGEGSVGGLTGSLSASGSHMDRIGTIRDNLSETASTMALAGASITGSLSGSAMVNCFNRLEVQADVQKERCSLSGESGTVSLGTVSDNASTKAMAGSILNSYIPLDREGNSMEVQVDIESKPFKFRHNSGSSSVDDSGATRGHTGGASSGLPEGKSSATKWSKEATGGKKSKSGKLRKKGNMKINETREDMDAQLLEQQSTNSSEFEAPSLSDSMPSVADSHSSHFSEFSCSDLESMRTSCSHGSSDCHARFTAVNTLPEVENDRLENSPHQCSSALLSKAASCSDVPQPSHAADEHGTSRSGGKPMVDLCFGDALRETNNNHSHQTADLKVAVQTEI
UniProt P62136: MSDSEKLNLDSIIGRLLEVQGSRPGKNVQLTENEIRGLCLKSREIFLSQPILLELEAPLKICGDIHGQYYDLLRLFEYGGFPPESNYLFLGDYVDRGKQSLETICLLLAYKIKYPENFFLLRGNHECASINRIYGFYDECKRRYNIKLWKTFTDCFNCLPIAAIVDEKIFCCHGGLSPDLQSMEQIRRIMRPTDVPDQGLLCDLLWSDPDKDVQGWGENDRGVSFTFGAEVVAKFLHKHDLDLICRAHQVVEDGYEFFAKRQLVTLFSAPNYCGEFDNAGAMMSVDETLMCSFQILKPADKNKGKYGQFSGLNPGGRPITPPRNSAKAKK
UniProt Q62696: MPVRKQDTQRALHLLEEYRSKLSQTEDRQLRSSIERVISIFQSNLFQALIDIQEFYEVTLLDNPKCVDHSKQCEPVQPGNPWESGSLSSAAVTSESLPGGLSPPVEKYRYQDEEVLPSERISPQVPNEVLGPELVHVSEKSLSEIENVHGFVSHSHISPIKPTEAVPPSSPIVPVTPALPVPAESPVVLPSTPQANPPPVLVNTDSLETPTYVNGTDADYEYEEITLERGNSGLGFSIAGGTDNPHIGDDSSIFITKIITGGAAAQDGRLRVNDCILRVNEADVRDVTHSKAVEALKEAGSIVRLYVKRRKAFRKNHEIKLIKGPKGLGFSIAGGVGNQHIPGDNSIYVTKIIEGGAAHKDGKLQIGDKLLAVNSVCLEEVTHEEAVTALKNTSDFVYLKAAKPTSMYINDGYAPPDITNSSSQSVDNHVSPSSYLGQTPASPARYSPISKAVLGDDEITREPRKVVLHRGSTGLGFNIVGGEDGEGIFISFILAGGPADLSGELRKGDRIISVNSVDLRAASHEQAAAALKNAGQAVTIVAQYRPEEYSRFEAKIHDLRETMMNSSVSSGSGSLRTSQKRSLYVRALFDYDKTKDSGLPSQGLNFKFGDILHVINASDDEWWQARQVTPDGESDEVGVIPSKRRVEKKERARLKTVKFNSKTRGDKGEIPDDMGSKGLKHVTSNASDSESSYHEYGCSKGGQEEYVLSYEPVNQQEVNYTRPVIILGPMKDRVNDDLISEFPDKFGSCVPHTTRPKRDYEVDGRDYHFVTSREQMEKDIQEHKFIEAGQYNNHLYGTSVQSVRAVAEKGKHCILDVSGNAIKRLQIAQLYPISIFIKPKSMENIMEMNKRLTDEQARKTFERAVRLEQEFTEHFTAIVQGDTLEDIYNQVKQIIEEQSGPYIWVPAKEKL
UniProt P0C0S6: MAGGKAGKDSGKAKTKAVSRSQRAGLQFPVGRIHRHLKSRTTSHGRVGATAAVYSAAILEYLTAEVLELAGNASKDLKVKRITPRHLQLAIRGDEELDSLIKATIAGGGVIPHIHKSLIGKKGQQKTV
UniProt P62140: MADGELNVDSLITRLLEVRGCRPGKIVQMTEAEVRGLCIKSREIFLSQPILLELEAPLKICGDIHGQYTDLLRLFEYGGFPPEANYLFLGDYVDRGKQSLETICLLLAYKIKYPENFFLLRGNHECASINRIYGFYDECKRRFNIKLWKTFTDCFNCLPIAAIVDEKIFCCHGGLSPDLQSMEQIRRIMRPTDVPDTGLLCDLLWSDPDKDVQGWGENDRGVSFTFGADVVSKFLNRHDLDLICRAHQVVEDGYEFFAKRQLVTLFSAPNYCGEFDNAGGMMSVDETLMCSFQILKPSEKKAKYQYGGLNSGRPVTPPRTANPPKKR

The target of assay [1] is Myc-Dorfin (full-length rat Dorfin) (rat) (UniProt D3ZXM0). The assay can be described thus: co-IP; HEK293 cells doubly expressing Myc-Dorfin and the indicated proteins; immunoprecipitated and immunoblotted with Myc or EGFP antibodies.
The target of assay [2] is Flag-Dorfin (full length; WT) (rat) (UniProt D3ZXM0). In words: co-IP; HEK293T cells doubly transfected with Flag-Dorfin (WT or Δ3) and PSD-95 or SAP97; immunoprecipitated with Flag antibodies, immunoblotted.
Assay [3] concerns the target T1, Dorfin (aa 834–840; wild type) in pBHA (mouse) (UniProt P50636).
T1 sequence: VAVQTEI
In words: two-hybrid; Dorfin aa 834–840 (WT or I840A) in pBHA (bait vector), PDZ domains in pGAD10 (prey vector); β-galactosidase and HIS3 activity.

For “PP1-α catalytic subunit (full-length pEGFP-PP1α) (from UniProt P62136 1-330) (enzyme)”, the binding entry in assay [1] is “binds”.
For “EGFP-SAP97 (full length) (from UniProt Q62696 1-911)”, the binding result in assay [2] was “binds”.
“PDZ domains of S-SCAM in pGAD10 (domain or fragment)”: the binding result in assay [3] is “no binding”.
For “histone H2A.Z (pEGFP-H2Afz) (from UniProt P0C0S6 1-128)”, in assay [1], the binding result is listed as “binds”.
Regarding “PP1-β catalytic subunit (full-length pEGFP-PP1β) (from UniProt P62140 1-327) (enzyme)”, the binding result in assay [1] is on record as “binds”.

B1: neurofilament M (full-length pEGFP-mNFM) (protein, UniProt P08553 1-848)
chain: MSYTLDSLGNPSAYRRVTETRSSFSRVSGSPSSGFRSQSWSRGSPSTVSSSYKRSALAPRLAYSSAMLSSAESSLDFSQSSSLLNGGSGGDYKLSRSNEKEQLQGLNDRFAGYIEKVHYLEQQNKEIEAEIQALRQKQASHAQLGDAYDQEIRELRATLEMVNHEKAQVQLDSDHLEEDIHRLKERFEEEARLRDDTEAAIRALRKDIEESSMVKVELDKKVQSLQDEVAFLRSNHEEEVADLLAQIQASHITVERKDYLKTDISTALKEIRSQLECHSDQNMHQAEEWFKCRYAKLTEAAEQNKEAIRSAKEEIAEYRRQLQSKSIELESVRGTKESLERQLSDIEERHNHDLSSYQDTIQQLENELRGTKWEMARHLREYQDLLNVKMALDIEIAAYRKLLEGEETRFSTFSGSITGPLYTHRQPSVTISSKIQKTKVEAPKLKVQHKFVEEIIEETKVEDEKSEMEETLTAIAEELAASAKEEKEEAEEKEEEPEAEKSPVKSPEAKEEEEEGEKEEEEEGQEEEEEEDEGVKSDQAEEGGSEKEGSSEKDEGEQEEEEGETEAEGEGEEAEAKEEKKIEGKVEEVAVKEEIKVEKPEKAKSPMPKSPVEEVKPKPEAKAGKGEQKEEEKVEEEKKEVTKESPKEEKVEKKEEKPKDVADKKKAESPVKEKAVEEVITISKSVKVSLEKDTKEEKPQPQEKVKEKAEEEGGSEEEGSDRSPQESKKEDIAINGEVEGKEEEEQETQEKGSGREEEKGVVTNGLDVSPAEEKKGEDSSDDKVVVTKKVEKITSEGGDGATKYITKSVTVTQKVEEHEETFEEKLVSTKKVEKVTSHAIVKEVTQGD
B1: in assay [1], the binding entry is on record as “binds”.
